Laboratory results: publication PMC5722368
These are yes or no findings as the source states them, for the method shown. In cells and extracts the contact can be indirect. A yes stands for co-enrichment or nearness to the bait. Other partners may have been found. Where a sequence is shown, tags or fusion partners need not be part of it.

Each substance was assayed against T1, Schistosoma mansoni histone deacetylase 8 (SmHDAC8), endogenous (S. mansoni (endogenous in adult worms)) (UniProt A5H660) (assay: affinity purification with mass spectrometry; Co-IP of endogenous SmHDAC8 from adult worm lysate (20 mM Tris HCl pH 7.4, 50 mM NaCl, 5 mM EDTA, 1% Triton) with rat anti-SmHDAC8 antibodies on protein-L agarose, overnight at 4°C; rat IgG control; three experiments pooled; nanoLC-MS/MS).
T1 sequence: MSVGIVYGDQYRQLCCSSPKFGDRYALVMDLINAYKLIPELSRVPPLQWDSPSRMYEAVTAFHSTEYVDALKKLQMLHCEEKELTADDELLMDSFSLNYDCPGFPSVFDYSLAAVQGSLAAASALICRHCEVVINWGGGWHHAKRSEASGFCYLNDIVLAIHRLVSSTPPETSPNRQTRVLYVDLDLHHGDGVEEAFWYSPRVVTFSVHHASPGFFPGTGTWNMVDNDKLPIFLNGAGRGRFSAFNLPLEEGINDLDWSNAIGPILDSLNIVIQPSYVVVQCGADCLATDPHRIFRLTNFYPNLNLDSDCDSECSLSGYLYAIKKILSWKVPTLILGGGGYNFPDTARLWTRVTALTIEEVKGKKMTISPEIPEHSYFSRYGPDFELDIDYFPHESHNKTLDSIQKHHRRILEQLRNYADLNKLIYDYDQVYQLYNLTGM

Row | Substance | binding
1 | Sec1 (S. mansoni) | binds
2 | Sec61β (S. mansoni) | binds
3 | cathepsin D (S. mansoni (endogenous in adult worms)) (enzyme) | binds
4 | cathepsin L2 (S. mansoni (endogenous in adult worms)) (enzyme) | binds
5 | gelsolin (S. mansoni orthologue) | binds
6 | microsomal glutathione S-transferase 3 (GST-3), endogenous (S. mansoni (endogenous in adult worms)) | binds
7 | putative NADH-ubiquinone oxidoreductase, endogenous (S. mansoni (endogenous in adult worms)) | binds
8 | septin (S. mansoni) | binds
